Results as given in patent US11603352 (University of California, dated 2023).
Results are given in words; binding and its absence hold for the method and conditions named. Some results given as binding are weak or reduced against the parent protein; the word gives no strength.

By UniProt entry, the sequences of proteins in these tests, tags left out.
UniProt Q92905: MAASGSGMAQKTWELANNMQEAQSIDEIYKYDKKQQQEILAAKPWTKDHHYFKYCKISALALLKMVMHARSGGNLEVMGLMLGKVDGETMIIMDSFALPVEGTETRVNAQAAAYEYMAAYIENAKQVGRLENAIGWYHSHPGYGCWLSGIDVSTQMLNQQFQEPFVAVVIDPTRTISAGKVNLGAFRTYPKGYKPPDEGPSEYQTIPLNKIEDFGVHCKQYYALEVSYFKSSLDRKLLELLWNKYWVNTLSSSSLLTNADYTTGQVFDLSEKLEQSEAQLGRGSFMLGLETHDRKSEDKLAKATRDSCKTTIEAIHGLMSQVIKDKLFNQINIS
UniProt P61201: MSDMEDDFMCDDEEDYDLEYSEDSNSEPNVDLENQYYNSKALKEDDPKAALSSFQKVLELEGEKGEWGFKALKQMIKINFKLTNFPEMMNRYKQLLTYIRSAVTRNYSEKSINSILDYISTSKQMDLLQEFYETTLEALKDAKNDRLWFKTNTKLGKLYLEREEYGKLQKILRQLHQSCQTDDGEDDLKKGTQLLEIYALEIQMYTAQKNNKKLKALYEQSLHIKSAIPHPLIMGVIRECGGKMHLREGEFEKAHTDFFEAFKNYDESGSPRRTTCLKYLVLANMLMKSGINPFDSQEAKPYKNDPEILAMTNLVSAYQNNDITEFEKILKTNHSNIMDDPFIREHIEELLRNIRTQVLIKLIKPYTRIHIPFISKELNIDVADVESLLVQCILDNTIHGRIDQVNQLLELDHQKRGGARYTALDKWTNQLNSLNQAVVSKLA
UniProt Q13098: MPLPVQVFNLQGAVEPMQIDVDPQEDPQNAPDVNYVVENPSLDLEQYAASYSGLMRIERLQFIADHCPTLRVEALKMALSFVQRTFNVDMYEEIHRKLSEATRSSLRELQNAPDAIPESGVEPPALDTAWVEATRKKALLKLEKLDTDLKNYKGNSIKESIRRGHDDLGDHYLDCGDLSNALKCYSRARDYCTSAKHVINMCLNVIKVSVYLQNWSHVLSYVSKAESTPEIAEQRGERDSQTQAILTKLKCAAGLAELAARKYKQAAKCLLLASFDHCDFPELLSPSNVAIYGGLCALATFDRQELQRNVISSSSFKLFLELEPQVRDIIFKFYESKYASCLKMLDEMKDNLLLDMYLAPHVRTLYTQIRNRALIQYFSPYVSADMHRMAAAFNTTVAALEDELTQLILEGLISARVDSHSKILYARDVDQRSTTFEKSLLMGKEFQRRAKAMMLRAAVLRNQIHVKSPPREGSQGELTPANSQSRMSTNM

Columns and labels:
[1] = molecular target: CSN5 (subunit 5 of the human COP9 signalosome) (human) (UniProt Q92905); experiment: PRM quantitation of DHSO cross-links; increased CSN/CSNn ratio
[2] = molecular target: CSN2 (subunit 2 of the human COP9 signalosome) (human) (UniProt P61201); experiment: as above
[3] = molecular target: CSN1 (subunit 1 of the human COP9 signalosome) (human) (UniProt Q13098); experiment: integrative structure of CSN from cross-links

| Substance | binding [1] | binding [2] | binding [3] |
| --- | --- | --- | --- |
| CSN1 (subunit 1 of the human COP9 signalosome) (from UniProt Q13098 1-491) | binds | binds |  |
| CSN2 (subunit 2 of the human COP9 signalosome) (from UniProt P61201 1-443) |  |  | binds |
